No constants are given. Whether binding was seen depends on the method and setting. Binding seen in cells or lysates may run through a third protein. Here binding means that the protein was enriched with, or labelled near, the bait; the list need not be complete. Sequences can lack the tags named with a protein.
B1: cysteine-rich RK 2 (CRK2) (receptor, UniProt Q9CAL3 30-649)
chain: DARARAVKVTCSPLLEHNETAYVPNFVATMEKISTQVQTSGFGVALTGTGPDANYGLAQCYGDLPLNDCVLCYAEARTMLPQCYPQNGGRIFLDGCFMRAENYSFYNEYKGPEDSIVCGNTTRKNKTFGDAVRQGLRNAVTEASGTGGYARASAKAGESESESAFVLANCWRTLSPDSCKQCLENASASVVKGCLPWSEGRALHTGCFLRYSDQDFLNKIPRNGRSRGSVVVIVVSVLSSVVVFMIGVAVSVYICKRRTIKRKRRGSKDVEKMAKTLKDSSLNFKYSTLEKATGSFDNANKLGQGGFGTVYKGVLPDGRDIAVKRLFFNNRHRATDFYNEVNMISTVEHKNLVRLLGCSCSGPESLLVYEYLQNKSLDRFIFDVNRGKTLDWQRRYTIIVGTAEGLVYLHEQSSVKIIHRDIKASNILLDSKLQAKIADFGLARSFQDDKSHISTAIAGTLGYMAPEYLAHGQLTEMVDVYSFGVLVLEIVTGKQNTKSKMSDYSDSLITEAWKHFQSGELEKIYDPNLDWKSQYDSHIIKKEIARVVQIGLLCTQEIPSLRPPMSKLLHMLKNKEEVLPLPSNPPFMDERVMELRDGSDGDSAGCASLATVSQSSFYGR
B2: lipase/lipoxygenase plat domain protein 2 (AT2G22170) (protein, UniProt Q9SIE7 26-183)
chain: DDEADCVYTFFLRTGSTFKAGTDSIISARVYDKYGDYIGIRNLEAWGGLMGPGYNYYERGNLDIFSGKAPCLPSPVCSLNLTSDGSGDHHGWYVNYVEVTTAGVHAKCSYQSFDVEQWLASDTSPYELSAVRNNCPVSLRESVGRVGSEIRKTLSWIV
B3: plasma membrane calcium ATPase ACA10 (enzyme, UniProt Q9SZR1 1-1069)
chain: MSGQFNNSPRGEDKDVEAGTSSFTEYEDSPFDIASTKNAPVERLRRWRQAALVLNASRRFRYTLDLKREEDKKQMLRKMRAHAQAIRAAHLFKAAASRVTGIASPLPTPGGGDFGIGQEQIVSISRDQNIGALQELGGVRGLSDLLKTNLEKGIHGDDDDILKRKSAFGSNTYPQKKGRSFWRFVWEASQDLTLIILIVAAVASLALGIKTEGIEKGWYDGISIAFAVLLVIVVTATSDYRQSLQFQNLNEEKRNIRLEVTRDGRRVEISIYDIVVGDVIPLNIGDQVPADGVLVAGHSLAVDESSMTGESKIVQKNSTKHPFLMSGCKVADGNGTMLVTGVGVNTEWGLLMASVSEDNGGETPLQVRLNGVATFIGIVGLTVAGVVLFVLVVRYFTGHTKNEQGGPQFIGGKTKFEHVLDDLVEIFTVAVTIVVVAVPEGLPLAVTLTLAYSMRKMMADKALVRRLSACETMGSATTICSDKTGTLTLNEMTVVECYAGLQKMDSPDSSSKLPSAFTSILVEGIAHNTTGSVFRSESGEIQVSGSPTERAILNWAIKLGMDFDALKSESSAVQFFPFNSEKKRGGVAVKSPDSSVHIHWKGAAEIVLGSCTHYMDESESFVDMSEDKMGGLKDAIDDMAARSLRCVAIAFRTFEADKIPTDEEQLSRWELPEDDLILLAIVGIKDPCRPGVKNSVLLCQQAGVKVRMVTGDNIQTAKAIALECGILASDSDASEPNLIEGKVFRSYSEEERDRICEEISVMGRSSPNDKLLLVQSLKRRGHVVAVTGDGTNDAPALHEADIGLAMGIQGTEVAKEKSDIIILDDNFESVVKVVRWGRSVYANIQKFIQFQLTVNVAALVINVVAAISAGEVPLTAVQLLWVNLIMDTLGALALATEPPTDHLMDRAPVGRREPLITNIMWRNLFIQAMYQVTVLLILNFRGISILHLKSKPNAERVKNTVIFNAFVICQVFNEFNARKPDEINIFRGVLRNHLFVGIISITIVLQVVIVEFLGTFASTTKLDWEMWLVCIGIGSISWPLAVIGKLIPVPETPVSQYFRINRWRRNSSG
B4: BAK1 (receptor, UniProt Q94F62 26-615)
chain: NAEGDALSALKNSLADPNKVLQSWDATLVTPCTWFHVTCNSDNSVTRVDLGNANLSGQLVMQLGQLPNLQYLELYSNNITGTIPEQLGNLTELVSLDLYLNNLSGPIPSTLGRLKKLRFLRLNNNSLSGEIPRSLTAVLTLQVLDLSNNPLTGDIPVNGSFSLFTPISFANTKLTPLPASPPPPISPTPPSPAGSNRITGAIAGGVAAGAALLFAVPAIALAWWRRKKPQDHFFDVPAEEDPEVHLGQLKRFSLRELQVASDNFSNKNILGRGGFGKVYKGRLADGTLVAVKRLKEERTQGGELQFQTEVEMISMAVHRNLLRLRGFCMTPTERLLVYPYMANGSVASCLRERPESQPPLDWPKRQRIALGSARGLAYLHDHCDPKIIHRDVKAANILLDEEFEAVVGDFGLAKLMDYKDTHVTTAVRGTIGHIAPEYLSTGKSSEKTDVFGYGVMLLELITGQRAFDLARLANDDDVMLLDWVKGLLKEKKLEALVDVDLQGNYKDEEVEQLIQVALLCTQSSPMERPKMSEVVRMLEGDGLAERWEEWQKEEMFRQDFNYPTHHPAVSGWIIGDSTSQIENEYPSGPR
B5: HAP13 (protein, UniProt O22715 1-428)
chain: MAGAASALFLLDIKGRVLVWRDYRGDVSAAQAERFFTKLIEKEGDSQSNDPVAYDNGVTYMFVQHSNVYLMIASRQNCNAASLLFFLHRVVDVFKHYFEELEEESLRDNFVVVYELLDEMMDFGYPQYTEARILSEFIKTDAYRMEVTQRPPMAVTNAVSWRSEGIQYKKNEVFLDVIENVNILVNSNGQIVRSDVVGALKMRTYLTGMPECKLGLNDRVLLEAQGRATKGKAIDLEDIKFHQCVRLARFENDRTISFIPPDGAFDLMTYRLSTQVKPLIWVEAQIESHSRSRVEMLIKARSQFKERSTATNVEIELPVPTDASNPTVRTSLGSASYAPEKDALVWKIKSFPGNKEYMLRAEFHLPSITAEEATPERKAPIRVKFEIPYFTVSGIQVRYLKIIEKSGYQALPWVRYITMAGEYELRLV
B6: an LRR-RK (AT3G02880) (receptor, UniProt Q9M8T0 24-627)
chain: SDLESDRRALLAVRNSVRGRPLLWNMSASSPCNWHGVHCDAGRVTALRLPGSGLFGSLPIGGIGNLTQLKTLSLRFNSLSGPIPSDFSNLVLLRYLYLQGNAFSGEIPSLLFTLPSIIRINLGENKFSGRIPDNVNSATRLVTLYLERNQLSGPIPEITLPLQQFNVSSNQLNGSIPSSLSSWPRTAFEGNTLCGKPLDTCEAESPNGGDAGGPNTPPEKKDSDKLSAGAIVGIVIGCVVGLLLLLLILFCLCRKRKKEENVPSRNVEAPVAAATSSAAIPKETVVVVPPAKATGSESGAVNKDLTFFVKSFGEFDLDGLLKASAEVLGKGTVGSSYKASFEHGLVVAVKRLRDVVVPEKEFRERLHVLGSMSHANLVTLIAYYFSRDEKLLVFEYMSKGSLSAILHGNKGNGRTPLNWETRAGIALGAARAISYLHSRDGTTSHGNIKSSNILLSDSYEAKVSDYGLAPIISSTSAPNRIDGYRAPEITDARKISQKADVYSFGVLILELLTGKSPTHQQLNEEGVDLPRWVQSVTEQQTPSDVLDPELTRYQPEGNENIIRLLKIGMSCTAQFPDSRPSMAEVTRLIEEVSHSSGSPNPVSD
B7: IOS1 (receptor, UniProt Q9C8I6 24-894)
chain: QDQSGFISLDCGSPRETSFREKTTNITYISDANFINTGVGGSIKQGYRTQFQQQTWNLRSFPQGIRNCYTLNLTIGDEYLIRANFLHGGYDDKPSTQFELYLGPNLWSTVTTTNETEASIFEMIHILTTDRLQICLVKTGNATPFISALELRKLMNTTYLTRQGSLQTFIRADVGATVNQGYRYGIDVFDRVWTPYNFGNWSQISTNQSVNINNDYQPPEIAMVTASVPTDPDAAMNISLVGVERTVQFYVFMHFAEIQELKSNDTREFNIMYNNKHIYGPFRPLNFTTSSVFTPTEVVADANGQYIFSLQRTGNSTLPPLLNAMEIYSVNLLPQQETDRKEVDAMMNIKSAYGVNKIDWEGDPCVPLDYKWSGVNCTYVDNETPKIISLDLSTSGLTGEILEFISDLTSLEVLDLSNNSLTGSVPEFLANMETLKLINLSGNELNGSIPATLLDKERRGSITLSIEGNTGLCSSTSCATTKKKKKNTVIAPVAASLVSVFLIGAGIVTFLILKRKKRTKLGLNPNSGTGTTPLHSRSHHGFEPPVIAKNRKLTYIDVVKITNNFERVLGRGGFGVVYYGVLNNEPVAVKMLTESTALGYKQFKAEVELLLRVHHKDLTCLVGYCEEGDKMSLIYEFMANGDLKEHLSGKRGPSILTWEGRLRIAAESAQGLEYLHNGCKPQIVHRDIKTTNILLNEKFQAKLADFGLSRSFPLGTETHVSTIVAGTPGYLDPEYYRTNWLTEKSDVFSFGVVLLELVTNQPVIDMKREKSHIAEWVGLMLSRGDINSIVDPKLQGDFDPNTIWKVVETAMTCLNPSSSRRPTMTQVVMDLKECLNMEMARNMGSRMTDSTNDSSIELSMNFTTELNPGAR
B8: AP4M (protein, UniProt Q9SB50 1-451)
chain: MMISQFFVLSQRGDNIVFRDYRAEVPKGSTETFFRKVKFWKEDGNAEAPPIFNVDGVNYFHVKVVGLYFVATTRVNVSPSLVLELLQRIARVIKDYLGVLNEDSFRKNFVLVYELLDEVIDFGYVQTTSTEVLKSYIFNEPIVVSPARLQPIDPAAIFTQGAKRMPGTAVTKSVVANDPGGRRREEIFVDIIEKISVTFSSSGYILTSEIDGTIQMKSYLSGNPEIRLALNEDLNIGRGGRSVYDYRSSSGSGVILDDCNFHESVRLDSFDSDRTLSLVPPDGEFPVMNYRMTQEFKPPFHVNTLIEEAGRLKAEVIIKIRAEFPSDIIANTITVQMPLPNYTSRASFELEPGAAGQRTDFKESNKMLEWNLKKIVGGGEHTLRAKLTFSQEFHGNITKEAGPVSMTFTIPMYNVSKLQVKYLQIAKKSSSYNPYRWVRYVTQANSYVARI
B9: N-TERMINAL-TRANSMEMBRANE C2 DOMAIN PROTEINS TYPE 4/Ca2+-… LIPID-BINDING PROTEIN 1/SYNAPTOTAGMIN 7 (AT3G61050) (protein, UniProt Q9LEX1 1-510)
chain: MGLISGILFGIIFGVALMAGWSRMMTHRSSKRVAKAVDMKLLGSLSRDDLKKICGDNFPQWISFPAFEQVKWLNKLLSKMWPYIAEAATMVIRDSVEPLLEDYRPPGITSLKFSKLTLGNVAPKIEGIRVQSFKEGQVTMDVDLRWGGDPNIVLGVTALVASIPIQLKDLQVFTVARVIFQLADEIPCISAVVVALLAEPKPRIDYTLKAVGGSLTAIPGLSDMIDDTVDTIVKDMLQWPHRIVVPIGGIPVDLSDLELKPQGKLIVTVVKATNLKNKELIGKSDPYATIYIRPVFKYKTKAIENNLNPVWDQTFELIAEDKETQSLTVEVFDKDVGQDERLGLVKLPLSSLEAGVTKELELNLLSSLDTLKVKDKKDRGSITLKVHYHEFNKEEQMAALEDEKKIMEERKRLKEAGVIGSTMDAVGMVGSGLGAGVGMVGTGIGTGVGLVGSGVSSGVGMVGSGFGAVGSGLSKAGRFMGRTITGQSSKRSGSSTPVNTVPENDGAKQQ

By UniProt entry, the sequences of proteins in these tests, tags left out.
UniProt Q9FIJ0: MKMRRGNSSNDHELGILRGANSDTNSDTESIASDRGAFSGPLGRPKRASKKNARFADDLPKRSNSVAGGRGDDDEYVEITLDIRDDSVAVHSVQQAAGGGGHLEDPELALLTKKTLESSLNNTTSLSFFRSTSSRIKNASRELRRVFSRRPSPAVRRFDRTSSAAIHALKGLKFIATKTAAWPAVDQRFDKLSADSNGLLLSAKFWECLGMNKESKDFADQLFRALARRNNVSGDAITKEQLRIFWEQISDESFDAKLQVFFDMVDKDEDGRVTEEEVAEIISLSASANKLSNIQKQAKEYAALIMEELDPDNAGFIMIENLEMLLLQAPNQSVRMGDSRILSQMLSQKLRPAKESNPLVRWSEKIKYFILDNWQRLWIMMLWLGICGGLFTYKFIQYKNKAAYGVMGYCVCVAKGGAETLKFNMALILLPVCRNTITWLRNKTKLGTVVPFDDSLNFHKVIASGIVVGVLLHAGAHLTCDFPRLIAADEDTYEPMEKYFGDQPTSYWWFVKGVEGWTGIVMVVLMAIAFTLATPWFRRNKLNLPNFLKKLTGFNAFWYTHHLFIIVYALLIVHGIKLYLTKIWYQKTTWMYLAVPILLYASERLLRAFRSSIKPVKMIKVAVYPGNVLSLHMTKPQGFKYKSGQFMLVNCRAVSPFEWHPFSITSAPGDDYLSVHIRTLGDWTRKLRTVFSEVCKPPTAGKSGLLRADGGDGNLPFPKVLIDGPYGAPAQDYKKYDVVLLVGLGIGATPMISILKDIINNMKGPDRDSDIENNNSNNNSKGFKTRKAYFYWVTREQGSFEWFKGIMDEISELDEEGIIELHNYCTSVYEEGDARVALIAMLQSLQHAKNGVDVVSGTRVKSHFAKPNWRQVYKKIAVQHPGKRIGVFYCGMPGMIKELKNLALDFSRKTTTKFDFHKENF

target: 3×FLAG-tagged RBOHD (RESPIRATORY BURST OXIDASE HOMOLOG D) (Arabidopsis thaliana) (UniProt Q9FIJ0); experiment: affinity purification with mass spectrometry

binding, binds:
B1, B2, B3, B4, B5, B6, B7, B8, B9

From article doi:10.1101/2020.12.28.423414
